Among all 410,000 compounds or so, about 2,000 (0.49%) were called active. This list was built around the results that the source calls inconclusive (neither active nor inactive); the mix of calls is not that of the screen. Calls follow the shape of the full dose curve; tested in HEK293 reporter line. A potency beside an inconclusive call is a rough fit, not a confirmed value.
Experiment: qHTS Assay for Foot and Mouth Disease Virus Antivirals: Primary Screen against the MLPCN compound library; also: nearly all actives have a fitted effect of over 55% in size
Conditions: FMDV antiviral cell-based qHTS; activity, negative = inhibition: at 57.9 µM (top of the series)
Potency is read from the fitted curve at half-maximal effect.

Structure (SMILES) | Potency | activity, negative = inhibition
CCOC(=O)c1c(C)[nH]c(CCC(=O)Nc2cc(C)cc(C)c2)c1C | inconclusive: 15.8 µM [inhibitor, partial curve] | 
COCc1c(C(=O)OCC(=O)N2c3ccccc3NC(=O)C2(C)C)oc2ccccc12 | inconclusive: 25.1 µM [inhibitor, partial curve, poor fit] | 
c1ccc(C(=NNc2nc3ccccc3s2)c2ccccn2)cc1 |  | inactive: -31.5%
CC(C)(C)c1ccc(CC(=O)N2CCC2(C)C(=O)Nc2cnc3ccccc3c2)cc1 (configuration not stated) | inconclusive: 20 µM [inhibitor, partial curve, poor fit] | 
O=C(c1ccccc1C(=O)N1CCN(c2ccc(F)cc2)CC1)N1CCN(c2ccc(F)cc2)CC1 | inconclusive: 22.4 µM [inhibitor, partial curve, poor fit] | 
N#CCCn1c2ccccc2c2nc3ccccc3nc21 | inconclusive: 39.8 µM [inhibitor, partial curve, poor fit] | 
CN(C)CCNC(=O)c1ccc2c(c1)N(Cc1c(F)cccc1Cl)C(=O)c1ccccc1S2 | inconclusive: 11.2 µM [inhibitor, partial curve] | 
Cc1cccc(NC(=O)c2nc(S(=O)(=O)Cc3ccccc3)ncc2Cl)c1 | inconclusive: 10 µM [inhibitor, partial curve, poor fit] | 
COc1ccc(-c2cc3nc(C)n(N)c(=O)c3s2)cc1 | inconclusive: 7.94 µM [inhibitor, full curve, poor fit] | 
C=CCn1c(SCC(=O)NCc2ccccc2)nnc1-c1cc(Br)ccc1O | inconclusive: 17.8 µM [inhibitor, partial curve] | 
CCOC(=O)C(C)On1c(-c2ccc(Cl)cc2)nc2ccc([N+](=O)[O-])cc21 (configuration not stated) | inconclusive: 39.8 µM [inhibitor, single point] | 
COc1ccc(CCn2c(C)cc(C(=O)CCl)c2C)cc1OC | inconclusive: 20 µM [inhibitor, partial curve, poor fit] | 
Cc1cc(N2CCOCC2)n2ncc(-c3ccccc3)c2n1 | inconclusive: 15.8 µM [inhibitor, single point] | 
COc1ccc(-n2nc3c(c2NC(=O)CCl)CSC3)cc1 | inconclusive: 31.6 µM [inhibitor, partial curve, poor fit] | 
Cc1ccc(/C(N)=N/OC(=O)c2ccc(Cl)cc2Cl)cc1 | inconclusive: 17.8 µM [inhibitor, single point] | 
c1ccc2c(c1)CCN(c1ncnc3c1[nH]c1ccccc13)C2 | inconclusive: 11.2 µM [inhibitor, partial curve, poor fit] | 
CCOC(=O)c1c(-n2c(C)cc(C=C3C(=O)NC(=S)NC3=O)c2C)sc2c1CCCC2 | inconclusive: 10 µM [inhibitor, partial curve, poor fit] | 
NNC(=O)c1cc2c(N3CCC(Cc4ccccc4)CC3)ncnc2s1 | inconclusive: 14.1 µM [inhibitor, partial curve, poor fit] | 
O=C(CCS(=O)(=O)c1ccccc1)Nc1ccccc1-c1nc2ccccc2s1 |  | inactive: -30.5%

Reformatted: entries from further up.
Structure (SMILES)	Potency	activity, negative = inhibition
N#CCCn1c2ccccc2c2nc3ccccc3nc21	inconclusive: 39.8 µM [inhibitor, partial curve, poor fit]	
CN(C)CCNC(=O)c1ccc2c(c1)N(Cc1c(F)cccc1Cl)C(=O)c1ccccc1S2	inconclusive: 11.2 µM [inhibitor, partial curve]	

The listing continues.

Structure (SMILES) | Potency | activity, negative = inhibition
CCc1nc2ccc(C(=O)Nc3cccc(OCC(=O)N(C)C)c3)cn2c1N(CC)CCOC |  | inconclusive: -31.2% [inhibitor]
COc1cc(CN2CCc3nc(N4CCN(c5ncccn5)CC4)ncc3C2)cc(OC)c1OC | inconclusive: 28.2 µM [inhibitor, partial curve, poor fit] | 
Cc1ccc(CN(C)C(=O)CN2C(=O)NC(c3ccccc3)(c3ccccc3)C2=O)c(C)c1 | inconclusive: 12.6 µM [inhibitor, single point] | 
COC(=O)/C=C1\SC(=NC(=O)c2cccc([N+](=O)[O-])c2)NC1=O | inconclusive: 14.1 µM [inhibitor, partial curve, poor fit] | 
c1csc(-c2nnc(NC3CCCCC3)c3ccccc23)c1 | inconclusive: 39.8 µM [inhibitor, partial curve, poor fit] | 
COC(=O)c1cccc(C(=O)NCc2nc(-c3cccc(NC(=O)c4ccoc4C)c3)oc2C)c1 | inconclusive: 22.4 µM [inhibitor, partial curve, poor fit] | 
O=C(Nc1ccc2oc(-c3ccncc3)nc2c1)c1ccc(F)cc1 | inconclusive: 6.31 µM [inhibitor, partial curve] | 
O=C(Cc1ccc(-n2c(=O)c3sccc3n(Cc3ccc(F)cc3)c2=O)cc1)NCc1ccco1 | inconclusive: 12.6 µM [inhibitor, partial curve] | 
Cc1ccc(Cn2c(=N)n(CC(=O)c3ccccc3)c3ccccc32)cc1 | inconclusive: 17.8 µM [inhibitor, single point] | 
COc1cccc(N2C(=O)/C(=C/c3ccc(C)o3)C(=O)NC2=S)c1 | inconclusive: 17.8 µM [inhibitor, partial curve, poor fit] | 
O=C(Nc1ccc2c(c1)OCO2)c1cc(-c2ccc(Br)cc2)on1 |  | inactive: -34.7%
CC1=C(C(=O)OCc2ccccc2)C(c2ccccc2Cl)NC(=O)N1C (configuration not stated) | inconclusive: 17.8 µM [inhibitor, partial curve, poor fit] | 
Cc1ccc(C(C)C)c(OCC(=O)Nc2ccccc2N2CCN(C)CC2)c1 | inconclusive: 31.6 µM [inhibitor, single point] | 
c1ccc(CNc2ncnc3scc(-c4cccs4)c23)nc1 | inconclusive: 15.8 µM [inhibitor, partial curve, poor fit] | 
COc1ccc2c(Cl)c(C(=O)OCC(=O)c3ccc4c(c3)NC(=O)CO4)sc2c1Cl |  | inactive: -31%
COCc1c(C(=O)Nc2ccc3nc(N4CCOCC4)sc3c2)oc2ccccc12 | inconclusive: 25.1 µM [inhibitor, partial curve, poor fit] | 
CCOC(=O)c1c(C)n(C)c2ccc(OCC(O)CN3C(=O)c4ccccc4S3(=O)=O)cc12 (configuration not stated) | inconclusive: 10 µM [inhibitor, partial curve] | 
COc1ccc(C2=Nn3c(nnc3-c3ccccc3Cl)SC2)cc1OC1CCCC1 | inconclusive: 31.6 µM [inhibitor, partial curve, poor fit] | 

Source: PubChem BioAssay AID1347131 (National Center for Advancing Translational Sciences (NCATS), 2019)
